In publication doi:10.1101/2020.01.16.909523 (bioRxiv, 2020):
Results are given in words; binding and its absence hold for the method and conditions named. In cells and extracts the contact can be indirect. Some binding calls cover weakened binding; strength is not graded here. Where a sequence is shown, tags or fusion partners need not be part of it.

Target: PE5mt-PPE4mt heterodimer (His6 tag on PE5mt) (Mycobacterium tuberculosis) (UniProt L7N695)
Assay: pull-down

| Molecule | binding |
| --- | --- |
| EspG3mt (from UniProt P9WJC7 1-295) | binds |
| EspG3 from Mycolicibacterium smegmatis (protein, UniProt A0QQ45) MGPNAVELTTDQAWCLADVLGAGSYPWVLAITPPYSDHSQRSAFLAAQSAELTRMGVVNSAGAVDPRVAQWITTVCRATQWLDLRFVSGPGDLLRGMVARRSEETVVALRNAQLVTFTAMDIGHQHALVPVLTAGLSGRKPARFDDFALPAAAGARADEQIRNGAPLAEVLEFLGVPPSARPLVESVFDGRRTYVEIVAGEHRDGHRVTTEVGVSIIDTPHGRILVHPTKAFDGEWISTFTPGSADAIAMAVERLTASLPSGSWFPDQPLTRDFDEDAATHREPVLQRRTQKA | binds |
